# About 35 (0.06%) of roughly 59,000 compounds were called active. Inconclusive results, whose numbers are uncertain, are shown with a selection of clear calls. Cut-off read from the data, not from the text of the source: active = max dye-equivalent concentration above about 10 nM; inconclusive = between about 1.1 nM and that limit; inactive = weaker than that.
# Test: qHTS Assay for Spectroscopic Profiling in Texas Red Spectral Region
# Details: Compound fluorescence, Texas Red channel, 547/618 nm; hits give high values
# Source text: NIH Molecular Libraries Screening Centers Network [MLSCN] NIH Chemical Genomics Center [NCGC] […] Occasionally, the artifactual effect may originate from the compound#s own spectral or other biophysical properties which generally tend to track its assay concentration. Pre-screening/profiling the library with respect to the compounds# spectral properties should help one exclude false positives early on. While the most informative fluorescent profiling data set is obtained by performing a full excitation and emission scan of each well by using a monochromator-based plate reader, such an approach is practical only on a very limited scale as scanning each well requires long time. An alternative approach, applied here, is to perform plate reader scans using selected excitation and emission wavelength pairs to generate a multidimensional relational database that correlates compound concentration and the respective relative fluorescence intensity at a given wavelength set. A standard curve of Texas Red (TR) present on each plate as six-point concentration series, was used to compute a normalized fluorescence response, termed dye-equivalent concentration, for each compound at each concentration.
# NCGC Assay Protocol Summary: Buffer: 100 mM Tris buffer, pH 8.0 Dye standard plate: The wells in columns 1 through 4 of a Kalypsys polypropylene 1536-well compound plate were filled with standard solutions of fluorophore corresponding to the spectral region of interest. Solutions of TR were placed in the following wells: U1, V1: 3 mM, U2, V2: 300 uM, U3, V3: 30 uM, U4, V4: zero (DMSO), W1, X1: 3 uM, W2, X2: 900 nM, W3, X3: 300 nM, W4, X4: zero (DMSO). Assay Steps: Six uL of buffer were dispensed to 1536-well Greiner black plates. Compounds and dye standards (23 nL) were transferred via Kalypsys PinTool. The plates were incubated for 15 min at room temperature, and then read on ViewLux (Perkin-Elmer) High-throughput CCD imager using 547 nm and 618 nm excitation and emission filter set. Keywords: NIH Roadmap, MLSCN, MLI, MLSMR, qHTS, NCGC, Texas Red, Fluorescent Profiling.
row,Structure (SMILES),max dye-equivalent concentration
1,COc1cc(C(=O)NCC(=O)OCC(=O)c2ccc[nH]2)cc(OC)c1OC,inconclusive: 1.2 nM
2,O=C(CCCN1C(=O)c2ccccc2C1=O)N1CCC(c2ccccc2)C1 (stereo not drawn),inactive
3,COC(=O)c1ccc(S(=O)(=O)N2C3CCC2CC(NC(=O)NC2CCCCC2)C3)cc1 (stereo not drawn),inconclusive: 1.4 nM
4,Cc1cccc(N2CCN(C(=O)c3cc4n(n3)C(C(F)(F)F)CC(c3ccco3)N4)CC2)c1C (stereo not drawn),inconclusive: 1.1 nM
5,COc1ccc(-n2nc(C(=O)N3CCCCC3)c3ccccc3c2=O)cc1,inconclusive: 1.1 nM
6,CCOCCCn1c(=S)[nH]c2cc(C(=O)NCCOC)ccc2c1=O,inconclusive: 1.1 nM
7,O=C(N1CCCCC1)C12CC3CC(C1)CC(C(=O)N1CCCCC1)(C3)C2,inconclusive: 1.6 nM
8,CCCS(=O)(=O)N1CCCC(C(=O)NCCCN(C)Cc2ccccc2)C1 (stereo not drawn),inconclusive: 1.4 nM
9,CN1CCN(CCCNC(=O)c2ccc(CSCc3cccc(Cl)c3)o2)CC1,inconclusive: 1.4 nM
10,COC(=O)CN(c1nc(C)c(Cl)c(OC)n1)S(=O)(=O)c1ccc(C)cc1,inactive
11,N#CC1=C(N)SC(N)=C(C#N)C1c1ccoc1,inactive
12,Cc1ccc(NC(=O)C2CC(=O)NC(N3CCCCC3)=N2)cc1Cl (stereo not drawn),inconclusive: 1.4 nM
13,N#C/C(C(=O)N1CCOCC1)=c1\s/c(=C/c2ccncc2)c(=O)n1-c1ccccc1,inconclusive: 1.4 nM
14,COc1ccc(CN2CCN(S(=O)(=O)c3ccc(NC(C)=O)cc3)CC2)cc1OC,inconclusive: 1.2 nM
15,O=C(Nc1ccc(-c2nc3ncccc3o2)cc1)c1ccc(Br)o1,inconclusive: 1.1 nM
16,COc1ccccc1NC(=O)CSc1nnc(-c2ccco2)o1,inconclusive: 1.1 nM
17,C[C@@]12CCC(=O)C=C1CC[C@H]1[C@@H]2[C@@H](O)C[C@]2(C)[C@@H]1CC[C@@]2(O)C(=O)CO,inactive
18,Cc1nc2ccccn2c1/C(O)=C1\C(=O)C(=O)N(CCN2CCOCC2)C1c1cccnc1 (stereo not drawn),inconclusive: 2.1 nM
19,c1ccc(C(c2nnnn2Cc2cccs2)N2CCN(C3CCCC3)CC2)cc1 (stereo not drawn),inconclusive: 1.7 nM
20,O=C(Cn1cnc2c(nnn2Cc2ccc(F)cc2)c1=O)N1CCN(c2ccccc2)CC1,inconclusive: 2.8 nM
21,CCCCn1c(C)nc2c(=O)n(C)c(=O)[nH]c21,inconclusive: 2.2 nM

row,Structure (SMILES),max dye-equivalent concentration
1,O=C(NCc1cccnc1)c1cn(CCc2ccccc2)nn1,inconclusive: 1.1 nM
2,Cc1ccc(NC(=O)NC(=O)CSc2nnnn2C)c(C)c1,inconclusive: 1.5 nM
3,O=C(c1cccs1)N1CCC(c2nc(-c3ccc(S(=O)(=O)N4CCOCC4)cc3)no2)CC1,inconclusive: 1.1 nM
4,Cn1c(SCC(=O)c2ccc(F)cc2)nnc1-c1ccccc1N,inconclusive: 1.2 nM
5,C[C@@H]1[C@H](C)CC[C@@]2(C(=O)O)CC[C@]3(C)C(=CC[C@H]4[C@@]5(C)CC[C@@H](O)C(C)(C)[C@@H]5CC[C@@]43C)[C@@H]12,inactive
6,COc1ccc(OC)c(NC(=O)CSc2nnc(N)s2)c1,inconclusive: 1.1 nM
7,CC(C)C1(C)C(=O)N=C2c3ccccc3C(=O)N21 (stereo not drawn),inconclusive: 1.9 nM
8,CCN1CCCC1CNS(=O)(=O)c1ccc(C(=O)Nc2ccccc2)cc1 (stereo not drawn),inconclusive: 1.3 nM
9,CC[C@@H]1CN2CCc3cc(OC)c(OC)cc3[C@H]2C[C@@H]1C[C@@H]1NCCc2cc(OC)c(OC)cc21,inactive
10,CC(=O)c1c(C)[nH]c(C(=O)N2CCCCCC2)c1C,inactive
11,CCCCc1c(O)nc(SCCN(C)C)n(-c2ccccc2)c1=O,inconclusive: 1.1 nM
12,Cn1c(=O)cc(OCCCC(=O)Nc2cccnc2)c2ccccc21,inactive
13,Cc1ccc2nc3sc(C(=O)N4CCOCC4)c(N)c3cc2c1,inactive
14,N=c1n(CCN2CCCC2)c2ccccc2n1CC(O)c1ccco1 (stereo not drawn),inconclusive: 1.1 nM
15,CCOC(=O)N1CCN(CCC(=O)c2ccc(Cl)cc2)CC1,inconclusive: 1.2 nM
16,Cc1ccc(-n2c(-c3ccncc3)nnc2-c2ccco2)cc1,inconclusive: 1.2 nM
17,C=CCn1cc(C(=O)NCCOC)c(=O)c2cc(S(=O)(=O)N(CC)CC)ccc21,inconclusive: 1.1 nM
18,COc1ccccc1CNC(=O)CCS(=O)(=O)c1cccs1,inactive
19,CCOc1ccccc1NC(=O)CSc1nnc(-c2cnccn2)n1C,inconclusive: 1.5 nM
20,O=C(COC(=O)c1ccccc1)NCC1CCCO1 (stereo not drawn),inconclusive: 2.3 nM
21,O=c1cc(N2CCc3ccccc3C2)[nH]c(=O)n1-c1ccc(Br)cc1,inconclusive: 1.2 nM

row,Structure (SMILES),max dye-equivalent concentration
1,O=C(C1CCN(C2CC(=O)N(c3cccc(Cl)c3)C2=O)CC1)N1CCCC1 (stereo not drawn),inconclusive: 1.1 nM
2,CCOC(=O)C1CCN(CC(O)COc2ccc(C(C)(C)CC)cc2)CC1 (stereo not drawn),inconclusive: 1.5 nM
3,Cc1ccnc(NC(=O)CCC(=O)N(CC(=O)NCCc2ccccc2)Cc2ccco2)c1,inconclusive: 1.4 nM
4,Cc1ccc(OCc2nnc(SCC(=O)c3ccccc3)n2Cc2ccco2)cc1,inconclusive: 2.2 nM
5,Cc1ccc2[nH]c(=O)c(COC(=O)C3CCCO3)cc2c1 (stereo not drawn),inconclusive: 1.1 nM
6,c1cnc2c(c1)ccc1cccnc12,inconclusive: 1.1 nM
7,O=c1cc(CSc2ccc(S(=O)(=O)N3CCCCC3)cn2)nc2sccn12,inconclusive: 1.5 nM
8,Cc1ccc(SCCNS(=O)(=O)c2ccc3c(c2)OCCO3)cc1,inconclusive: 1.6 nM
9,CCOC(=O)N1CCC(NC(=O)CCC(=O)N2CC(C)Oc3ccc(C)cc32)CC1 (stereo not drawn),inconclusive: 1.2 nM
10,CCOc1cc(S(=O)(=O)N2CCN(c3ccc(F)cc3)CC2)c(OCC)cc1-n1cnnn1,inconclusive: 1.2 nM
11,Cc1ccc(Cn2c(CN3CCOCC3)nc3c2c(=O)n(C)c(=O)n3C)cc1,inconclusive: 1.2 nM
12,CN(Cc1ccccc1)c1nc2c(c(=O)[nH]c(=O)n2C)n1CCSc1nc2ccccc2[nH]1,inconclusive: 1.2 nM
13,Nc1nc(C(=O)N2CCOCC2)nn1S(=O)(=O)c1ccc(Cl)cc1,inconclusive: 1.5 nM
14,COc1ccc(C2C(C#N)=C(/N=C/N3CCN(C)CC3)OC3=C2C(=O)CC(C)(C)C3)cc1 (stereo not drawn),inconclusive: 2 nM
15,Cc1nccn1CC(=O)O,inconclusive: 1.3 nM
16,CCN(CC)CCCn1c(C)cc2c(c1=O)C(c1cc(OC)c(OC)cc1OC)C(C#N)=C(N)O2 (stereo not drawn),inconclusive: 1.4 nM
17,C=CCn1c(SCC(=O)Nc2ccccc2CC)nnc1-c1ccncc1,inconclusive: 2.6 nM
18,COc1ccc(C2C(C(=O)c3sc(C)nc3C)=C(O)C(=O)N2CCN(C)C)cc1 (stereo not drawn),inconclusive: 1.2 nM
19,COc1ccc(Oc2ncc3ncc(=O)n(-c4ccc(OC)cc4)c3n2)cc1,inconclusive: 1.7 nM
20,CCCNC(=O)NC(=O)CSc1nnc(-c2ccncc2)n1CC,inconclusive: 1.1 nM
21,COc1ccccc1CNC(=O)N[C@@H](Cc1ccccc1)C(=O)O,inconclusive: 1.5 nM

# Molecules shown so far containing a COOH group (3):
row,Structure (SMILES),max dye-equivalent concentration
5,C[C@@H]1[C@H](C)CC[C@@]2(C(=O)O)CC[C@]3(C)C(=CC[C@H]4[C@@]5(C)CC[C@@H](O)C(C)(C)[C@@H]5CC[C@@]43C)[C@@H]12,inactive
15,Cc1nccn1CC(=O)O,inconclusive: 1.3 nM
21,COc1ccccc1CNC(=O)N[C@@H](Cc1ccccc1)C(=O)O,inconclusive: 1.5 nM

# Additional entries follow.

row,Structure (SMILES),max dye-equivalent concentration
1,O=C(CSc1nnnn1C1CCCC1)c1ccc2c(c1)OCCO2,inconclusive: 1.2 nM
2,CCCCCCNC(=O)CC(NS(=O)(=O)c1ccc(NC(C)=O)cc1)C(C)C (stereo not drawn),inconclusive: 1.9 nM
3,CCn1c(=O)cc(OCC(=O)NCCCN2CCC(C)CC2)c2ccccc21,inconclusive: 1.2 nM
4,CCn1c(-c2ccc(N(C)C)cc2)nc2ccccc21,inconclusive: 1.3 nM
5,COc1ccccc1Cn1c(=O)c2ccccc2n2c(SCC(=O)N3CCCCC3)nnc12,inconclusive: 1.3 nM
6,Cc1cc2ccccc2c(=O)n1CC(=O)NCC(=O)N1CCN(c2cccc(Cl)c2)CC1,inconclusive: 1.3 nM
7,O=S(=O)(c1ccc2c(c1)OCCO2)N1CCN(c2cccc(Cl)c2)CC1,inconclusive: 1.2 nM
8,CCCCC(=O)NCc1ccc2c(c1)cc(C)n2C,inconclusive: 1.5 nM
9,CNC(=O)CSCCn1c(SCC(=O)NC)nc2ccccc2c1=O,inconclusive: 1.1 nM
10,CCCCCn1c(=O)[nH]c2c(c1=O)CCC2,inconclusive: 1.1 nM
11,COc1ccc(OC)c(C2=C[N+](=O)C(C)(C)C(C)(C)N2[O-])c1,inconclusive: 1.1 nM
12,N[C@@H](C(=O)O)[C@@H]1C[C@H]1C(=O)O,inactive
13,CCOc1ccc2nc(NC(=O)C(CCSC)NS(=O)(=O)c3cccs3)sc2c1 (stereo not drawn),inconclusive: 1.1 nM
14,CC(C)NC(=O)N1CC2(CCN(C(=O)c3cccn3C)CC2)C1,inconclusive: 1.2 nM
15,O=C(CC1SCCNC1=O)Nc1cc(Cl)cc(Cl)c1 (stereo not drawn),inconclusive: 1.3 nM
16,CCOc1ccc(C2/C(=C(/O)c3ccc(F)cc3)C(=O)C(=O)N2CCCN(C)C)cc1 (stereo not drawn),inconclusive: 1.5 nM
17,CC1CCN(CCNC(=O)c2ccc(NC(=O)C3CCCO3)cc2)CC1 (stereo not drawn),inconclusive: 1.5 nM
18,c1ccc2c(CNn3cnnc3)cccc2c1,inconclusive: 1.4 nM
19,Cn1c(=O)c2c(nc(N3CCN(Cc4ccccc4)CC3)n2CCCc2ccccc2)n(C)c1=O,inconclusive: 1.1 nM
20,O=C(NCCN1CCc2ccccc2C1)C1CC(=O)N(C2CCCC2)C1 (stereo not drawn),inconclusive: 1.2 nM

# Source: PubChem BioAssay AID587 (National Center for Advancing Translational Sciences (NCATS), 2007)
